Laboratory results: US20160215305A1, “Process of Fermenting A Lignocellulosic Biomass” (priority 2015, published 2016)
Where “and” joins values, the source holds several entries; their conditions need not be identical. Identical values can stand only once. At least one read-out could not be matched to a standard name with certainty. Some results were stated once for a whole list of compounds, not compound by compound.

Tested on: S. cerevisiae
Assay: Batch fermentation of amino acid detoxified loblolly pine hydrolysates by Baker yeast
Format: cell-based, Saccharomyces cerevisiae
Conditions: hydrolysates detoxified with amino acid 0.2% w/v, pH 6.0, 60° C., 2 hours
From the text: Loblolly pine (Pinus taeda) wood chips (1.0×1.0 cm, L×W) were collected by Forest Products Laboratory at Auburn University, located in Auburn, Ala. Dilute acid pretreatment was used to produce biomass hydrolysates in a 4.0 L Parr batch reactor (Parr Instrument Co., Moline, Ill.) as previously described (Lai, C. H., Tu, M. B., Li, M., Yu, S. Y. 2014. Remarkable solvent and extractable lignin effects on enzymatic digestibility of organosolv pretreated hardwood. Bioresource Technology, 156, 92-98). Briefly, wood chips (400 grams, dry weight) were soaked in 1% (w/w) sulfuric acid overnight (7:1 liquor/solid ratio) prior to the pretreatment, and then loaded into a reactor and treated at 170° C. for 60 minutes.
To achieve higher ethanol titer in fermentation, loblolly pine hydrolysates were concentrated to approximately one-third of its original volume using a rotary evaporator (IKA RV10 basic) at 40° C. and 60 rotations per minute (rpm). The hydrolysates were first adjusted to pH 4.0 before evaporation. After the concentration, the sugar contents of the hydrolysates were analyzed by HPLC.
[…] The detoxification experiments were performed in a 250 mL flask and placed in a temperature-controlled water batch.
Baker yeast (Fleischmann's), S. cerevisiae, was used for all the fermentation experiments in this study. The yeast was maintained on YDP medium containing (g/L): 20 glucose, 20 peptone, 10 yeast extract and 20 agar. Isolated colony was grown in YDP liquid medium overnight and harvested as fermentation inoculum. The yeast concentration was measured using an UV-vis spectrophotometer. Inoculum of 2.0 g/L was used for all fermentation experiments.
Batch fermentation was carried out in 125 mL serum bottles containing 50 mL broths (untreated or detoxified hydrolysates, untreated or detoxified cinnamaldehyde sugar solution) without any additional nutrient supplement. All the fermentation broths were adjusted to pH 6 with NaOH or H2SO4 and sterilized by passing 0.2 μm sterile filters. After inoculation, the serum bottle was sealed with rubber stopper and aluminum seal, and equipped with cannulas for CO2 release. All fermentation experiments were incubated at 30° C., spun at 150 rpm in a shaker (E24, New Brunswick Scientific). Aliquots of samples were withdrawn at 0, 1, 3, 6, 9, 12, 24, 36 and 48 hours for the time course analysis of both starting material and products. Fermentation was carried out in duplicate. The volumetric ethanol productivity and initial consumption rate of glucose (RG) and mannose (RM) was calculated based on the sugar consumed in the first 6 h of fermentation as described previously (Cao, D. X., Tu, M. B., Xie, R., Li, J., Wu, Y. N., Adhikari, S. 2014. Inhibitory Activity of Carbonyl Compounds on Alcoholic Fermentation by Saccharomyces cerevisiae. Journal of Agricultural and Food Chemistry, 62(4), 918-926).
Ethanol, acetic acid, levulinic acid, formic acid, furfural and HMF were analyzed using an Aminex HPX-87H column (300×7.8 mm) with a refractive index detector. The elution conditions were column temperature of 45° C. and flow rate of 0.6 ml/min with 5.0 mM H2SO4 as the mobile phase in a 60 min isocratic run.

SMILES: NC(=O)C[C@H](N)C(=O)O [Asparagine, asparagine]
- CHMF, percentage of HMF consumed at 48 h: 39.20 ± 0.50%
- YEtOH, ethanol yield from total glucose and mannose at 48 h: 0.20 ± 0.01 g/g
- CHMF, percentage of HMF consumed at 48 h (listed as asparagine): 39.20-96.40% and 39.2%
- YEtOH, ethanol yield from total glucose and mannose at 48 h (listed as asparagine): 0.20 to 0.26 g/g

SMILES: N[C@@H](CS)C(=O)O [Cysteine, cysteine]
- CHMF, percentage of HMF consumed at 48 h: 96.40 ± 0.03%

SMILES: N[C@@H](Cc1c[nH]cn1)C(=O)O [Histidine, histidine]
- CHMF, percentage of HMF consumed at 48 h: 81.94 ± 1.57%
